These are yes or no findings as the source states them, for the method shown. Binding seen in cells or lysates may run through a third protein. Here binding means that the protein was enriched with, or labelled near, the bait; the list need not be complete.
Molecular target: T1, CARM1 (human (endogenous in H1299, A549 and PC9)) (UniProt Q86X55)
T1 sequence: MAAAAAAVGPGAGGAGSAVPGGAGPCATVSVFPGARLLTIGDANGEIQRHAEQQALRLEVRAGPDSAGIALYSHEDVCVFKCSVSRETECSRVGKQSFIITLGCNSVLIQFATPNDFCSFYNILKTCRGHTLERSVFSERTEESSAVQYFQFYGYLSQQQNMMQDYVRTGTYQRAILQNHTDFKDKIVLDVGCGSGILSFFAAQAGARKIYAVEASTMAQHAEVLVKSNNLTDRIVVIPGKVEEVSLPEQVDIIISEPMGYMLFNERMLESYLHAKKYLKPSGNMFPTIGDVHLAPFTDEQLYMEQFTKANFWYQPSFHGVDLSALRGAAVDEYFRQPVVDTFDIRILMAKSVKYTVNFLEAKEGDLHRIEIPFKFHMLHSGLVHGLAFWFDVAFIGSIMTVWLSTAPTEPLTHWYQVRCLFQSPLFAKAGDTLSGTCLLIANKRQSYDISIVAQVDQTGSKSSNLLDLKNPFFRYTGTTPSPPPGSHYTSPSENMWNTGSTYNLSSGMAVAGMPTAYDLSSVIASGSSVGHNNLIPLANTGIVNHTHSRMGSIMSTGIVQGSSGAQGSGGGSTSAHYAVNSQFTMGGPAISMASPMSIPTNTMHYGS
Assay: affinity purification with mass spectrometry; immunoprecipitation with CARM1 antibody preabsorbed to protein A- and G-Sepharose beads in H1299, A549 and PC9 cells; 2D-LC-MS/MS

Protein sequences, listed by entry. Tags and fused reporters are not part of them.
UniProt O15379: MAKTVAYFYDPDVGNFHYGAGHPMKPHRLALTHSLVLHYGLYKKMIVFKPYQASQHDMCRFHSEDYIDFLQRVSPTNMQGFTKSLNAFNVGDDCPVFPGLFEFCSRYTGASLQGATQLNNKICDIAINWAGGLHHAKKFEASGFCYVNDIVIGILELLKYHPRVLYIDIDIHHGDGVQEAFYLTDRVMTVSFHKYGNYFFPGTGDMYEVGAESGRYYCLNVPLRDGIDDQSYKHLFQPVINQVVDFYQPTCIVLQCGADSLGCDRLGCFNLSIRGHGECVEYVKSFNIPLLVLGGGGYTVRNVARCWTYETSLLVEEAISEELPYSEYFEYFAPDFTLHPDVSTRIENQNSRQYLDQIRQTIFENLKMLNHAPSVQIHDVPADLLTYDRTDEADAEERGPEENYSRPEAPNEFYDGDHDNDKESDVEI

binding: binds
Substance: HDAC3 (from UniProt O15379 1-428)
